The values that follow come from article doi:10.1101/2023.06.27.546774.

By UniProt entry, the sequences of proteins in these tests, tags left out.
UniProt P42224: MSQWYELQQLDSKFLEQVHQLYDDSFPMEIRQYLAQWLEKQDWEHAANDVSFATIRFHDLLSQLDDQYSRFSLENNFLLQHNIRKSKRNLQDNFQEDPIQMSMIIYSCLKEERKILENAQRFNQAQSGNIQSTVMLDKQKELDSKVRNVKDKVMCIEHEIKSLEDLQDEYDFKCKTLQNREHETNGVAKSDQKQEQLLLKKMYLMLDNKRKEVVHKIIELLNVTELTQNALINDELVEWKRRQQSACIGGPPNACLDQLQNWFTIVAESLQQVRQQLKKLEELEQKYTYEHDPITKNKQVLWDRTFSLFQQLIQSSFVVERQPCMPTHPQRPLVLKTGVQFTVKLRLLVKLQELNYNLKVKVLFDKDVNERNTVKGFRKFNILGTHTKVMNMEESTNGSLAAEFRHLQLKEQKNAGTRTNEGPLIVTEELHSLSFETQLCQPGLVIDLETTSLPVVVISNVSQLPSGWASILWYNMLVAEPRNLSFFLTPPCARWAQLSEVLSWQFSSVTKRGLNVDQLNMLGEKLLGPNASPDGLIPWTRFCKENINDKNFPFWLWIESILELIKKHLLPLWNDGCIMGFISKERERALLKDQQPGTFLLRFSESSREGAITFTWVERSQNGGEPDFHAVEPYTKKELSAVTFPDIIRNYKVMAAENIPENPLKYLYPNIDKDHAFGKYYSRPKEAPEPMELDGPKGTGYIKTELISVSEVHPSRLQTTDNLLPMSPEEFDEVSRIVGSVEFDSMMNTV

These are yes or no findings as the source states them, for the method shown. Binding seen in cells or lysates may run through a third protein. Some results given as binding are weak or reduced against the parent protein; the word gives no strength. Where a sequence is shown, tags or fusion partners need not be part of it.

The test has as its target GFP-tagged STAT1 (signal transducer and activator of transcription-1) (UniProt P42224). As to the kind of experiment: co-IP.

B1: HA-tagged protein tyrosine phosphatase non-receptor type 2 (PTPN2) (enzyme, UniProt P17706-2 1-387)
chain: MPTTIEREFEELDTQRRWQPLYLEIRNESHDYPHRVAKFPENRNRNRYRDVSPYDHSRVKLQNAENDYINASLVDIEEAQRSYILTQGPLPNTCCHFWLMVWQQKTKAVVMLNRIVEKESVKCAQYWPTDDQEMLFKETGFSVKLLSEDVKSYYTVHLLQLENINSGETRTISHFHYTTWPDFGVPESPASFLNFLFKVRESGSLNPDHGPAVIHCSAGIGRSGTFSLVDTCLVLMEKGDDINIKQVLLNMRKYRMGLIQTPDQLRFSYMAIIEGAKCIKGDSSIQKRWKELSKEDLSPAFDHSPNKIMTEKYNGNRIGLEEEKLTGDRCTGLSSKMQDTMEENSESALRKRIREDRKATTAQKVQQMKQRLNENERKRKRPRLTDT
For the molecule B1, the binding result is recorded as “binds”.
